Publication PMC6461802, “Coupling of ssRNA cleavage with DNase activity in type III-A CRISPR-Csm revealed by cryo-EM and biochemistry” (Cell Research, 2019)
These are yes or no findings as the source states them, for the method shown. Some results given as binding are weak or reduced against the parent protein; the word gives no strength.

Assays:
[1] = biological target: T1, Cas10 of the Streptococcus thermophilus type III-A Csm complex (Streptococcus thermophilus DGCC8004); test: cryo-EM structure; apo state: StCsm complex with 40 nt crRNA, wild-type Csm3; big (3.4 Å) and small (3.3 Å) particle populations; ~0.4 mg/mL, buffer 10 mM Tris-HCl pH 8.0, 150 mM NaCl, 3 mM DTT; both purified
T1 sequence: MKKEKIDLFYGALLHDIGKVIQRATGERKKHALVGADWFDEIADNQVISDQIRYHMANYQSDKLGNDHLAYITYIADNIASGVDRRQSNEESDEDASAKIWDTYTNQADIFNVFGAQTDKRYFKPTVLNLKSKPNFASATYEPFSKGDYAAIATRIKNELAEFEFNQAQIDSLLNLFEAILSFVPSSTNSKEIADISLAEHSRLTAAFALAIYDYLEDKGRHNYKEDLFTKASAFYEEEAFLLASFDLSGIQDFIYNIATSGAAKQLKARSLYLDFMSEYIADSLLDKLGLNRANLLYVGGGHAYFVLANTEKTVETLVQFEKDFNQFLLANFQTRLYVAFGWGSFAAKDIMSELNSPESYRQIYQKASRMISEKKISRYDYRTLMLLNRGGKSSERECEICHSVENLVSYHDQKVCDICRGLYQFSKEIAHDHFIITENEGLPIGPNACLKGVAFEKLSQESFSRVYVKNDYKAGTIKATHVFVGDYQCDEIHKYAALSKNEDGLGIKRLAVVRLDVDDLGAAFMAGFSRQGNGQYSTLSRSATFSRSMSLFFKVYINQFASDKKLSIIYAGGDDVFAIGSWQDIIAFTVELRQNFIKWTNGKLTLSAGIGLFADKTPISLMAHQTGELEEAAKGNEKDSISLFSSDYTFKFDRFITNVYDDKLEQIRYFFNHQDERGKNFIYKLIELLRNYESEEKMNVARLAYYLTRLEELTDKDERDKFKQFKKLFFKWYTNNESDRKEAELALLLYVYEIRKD

[2] = biological target: T2, Csm3 of the Streptococcus thermophilus type III-A Csm complex (wild type, apo state) (Streptococcus thermophilus DGCC8004); test: as above
T2 sequence: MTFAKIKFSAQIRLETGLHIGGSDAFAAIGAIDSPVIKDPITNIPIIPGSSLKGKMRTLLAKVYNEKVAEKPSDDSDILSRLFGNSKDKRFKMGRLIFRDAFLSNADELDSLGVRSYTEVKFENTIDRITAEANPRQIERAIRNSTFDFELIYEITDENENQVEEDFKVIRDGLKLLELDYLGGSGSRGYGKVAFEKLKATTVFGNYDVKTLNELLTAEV

[3] = biological target: T1, Cas10 of the Streptococcus thermophilus type III-A Csm complex (Streptococcus thermophilus DGCC8004); test: cryo-EM structure; target ssRNA-bound state: StCsm complex with 40 nt crRNA and 49 nt target ssRNA, Csm3 D33A; big (3.4 Å) and small (3.5 Å) particle populations; ~0.4 mg/mL, buffer 10 mM Tris-HCl pH 8.0, 150 mM NaCl, 3 mM DTT; both purified
[4] = biological target: T3, Csm3 D33A of the Streptococcus thermophilus type III-A Csm complex (target ssRNA-bound state) (Streptococcus thermophilus DGCC8004); test: as above
T3 sequence: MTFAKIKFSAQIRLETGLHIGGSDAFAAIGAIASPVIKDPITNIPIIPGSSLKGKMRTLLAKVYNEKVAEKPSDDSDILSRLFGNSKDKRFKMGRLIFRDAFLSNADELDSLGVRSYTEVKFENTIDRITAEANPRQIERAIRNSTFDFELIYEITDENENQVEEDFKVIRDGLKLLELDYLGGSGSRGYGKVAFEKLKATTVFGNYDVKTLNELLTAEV

[5] = biological target: T4, Csm2 of the Streptococcus thermophilus type III-A Csm complex (Streptococcus thermophilus DGCC8004); test: cryo-EM structure; apo state: StCsm complex with 40 nt crRNA, wild-type Csm3; big (3.4 Å) and small (3.3 Å) particle populations; ~0.4 mg/mL, buffer 10 mM Tris-HCl pH 8.0, 150 mM NaCl, 3 mM DTT; both purified
T4 sequence: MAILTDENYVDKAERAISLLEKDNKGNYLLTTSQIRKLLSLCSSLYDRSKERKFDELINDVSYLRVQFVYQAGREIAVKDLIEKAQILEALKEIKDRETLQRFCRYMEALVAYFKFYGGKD

[6] = biological target: T4, Csm2 of the Streptococcus thermophilus type III-A Csm complex (Streptococcus thermophilus DGCC8004); test: cryo-EM structure; target ssRNA-bound state: StCsm complex with 40 nt crRNA and 49 nt target ssRNA, Csm3 D33A; big (3.4 Å) and small (3.5 Å) particle populations; ~0.4 mg/mL, buffer 10 mM Tris-HCl pH 8.0, 150 mM NaCl, 3 mM DTT; both purified

Measured: binding

B1: Csm2 of the Streptococcus thermophilus type III-A Csm complex (natural protein, Streptococcus thermophilus DGCC8004)
chain: MAILTDENYVDKAERAISLLEKDNKGNYLLTTSQIRKLLSLCSSLYDRSKERKFDELINDVSYLRVQFVYQAGREIAVKDLIEKAQILEALKEIKDRETLQRFCRYMEALVAYFKFYGGKD
notes: Csm2, Streptococcus thermophilus DGCC8004; csm2 is present both on the untagged gene cassette and on the His-tag plasmid, so the 3 or 5 copies in the complex may be a mix of tagged and untagged chains; No tag removal is described; also called Csm2a; Csm2b
binds: [1] | [2] | [3] | [4]

B2: Csm5 of the Streptococcus thermophilus type III-A Csm complex (protein, UniProt A0A0A7HF79 1-357)
chain: MKNDYRTFKLSLLTLAPIHIGNGEKYTSREFIYENKKFYFPDMGKFYNKMVEKRLAEKFEAFLIQTRPNARNNRLISFLNDNRIAERSFGGYSISETGLESDRNPNSAGAINEVNKFIRDAFGNPYIPGSSLKGAIRTILMNTTPKWNNENAVNDFGRFPKENKNLIPWGPKKGKEYDDLFNAIRVSDSKPFDNKRLILVQKWDYSAKTNKAKPLPLYRESISPLTKIEFEITTTTDEAGRLIEELGKRAQAFYKDYKAFFLSEFPDDKIQANLQYPIYLGAGSGAWTKTLFKQADGILQRRYSRMKTKMVKKGVLKLTKAPLKIVKIPSGNHSLIKNHESFYEMGKANFMIKEIDK
binds: [5] | [6]
